Experimental data published in paper doi:10.1101/2025.08.17.670746.
Results are given in words; binding and its absence hold for the method and conditions named. Some binding calls cover weakened binding; strength is not graded here. Sequences can lack the tags named with a protein.

Molecular target: CDM1, yeast two-hybrid bait and prey fusions (Arabidopsis thaliana) (UniProt Q9C9F5)
Assay: two-hybrid

B1: CDM1, yeast two-hybrid bait and prey fusions (protein, UniProt Q9C9F5 1-308)
chain: MENKIAPFSYSGSSAGNSSSGGVVSSSLYSDQLYKSTRNIMQQRQDMVNREALCYTRLHEASLEAEALRLENTELRSMNLRLKNELNSLIRSSIQNRFDHRSPLRMLSNLSIGGNDADEVENQNRTVNRDDVNDKSPTSVMENEDLNRSSLPKSISVRSNGYSKASQGGGGAAAQSGKPRGTVTKPGTCGQVSTTQKVYVRGGGKKEDQEEEIEVEVYNQGMTKTELCNKWQETGTCPYGDHCQFAHGIKELRPVIRHPRYKTEVCRMVLAGDNCPYGHRCHFRHSLSEQEKLVAAGFKPKSSLKLIT
With B1 the binding was “binds”.
